No constants are given. Whether binding was seen depends on the method and setting. In cells and extracts the contact can be indirect. Some entries that bind do so weakly or less than the wild type.
How the values were obtained:
[1] = target: Endogenous NFI-C (nuclear factor I-C) of MDPC-23 cells (mouse (endogenous in MDPC-23)) (UniProt P70255); assay: co-IP; endogenous proteins; MDPC-23 cells with or without TGF-β1 (10 ng/ml) in the presence of MG132 (10 µM) for 1 hr; cytoplasmic and nuclear fractions; NFI-C immunoprecipitates blotted with anti-pSmad3
[2] = target: Endogenous NFI-C (nuclear factor I-C) of MDPC-23 cells (mouse (endogenous in MDPC-23)) (UniProt P70255); assay: co-IP; endogenous proteins; MDPC-23 whole cell lysates, untreated or TGF-β1 (10 ng/ml, 1 hr), with or without U0126 (10 µM); also FGF, EGF, p38 and JNK inhibitors (data not shown); NFI-C immunoprecipitates blotted with anti-Smurf1 or anti-Smurf2
[3] = target: HA-tagged NFI-C (nuclear factor I-C) (UniProt P70255); assay: co-IP; HEK293T co-transfected for 48 hr with HA-tagged NFI-C and a FLAG-tagged partner, with or without TGF-β1 (10 ng/ml, 1 hr); 500 µg precleared extract, anti-HA overnight at 4°C, Protein A/G beads; blot with anti-FLAG and anti-HA
[4] = target: Phosphorylated HA-NFI-C (ERK-phosphorylated, from cells co-transfected with MEK-CA) (UniProt P70255); assay: pull-down; in vitro binding assay: HA-NFI-C from HEK293T (with MEK-CA) held by anti-HA on Protein A/G beads, with or without lambda protein phosphatase (30°C, 1 hr), incubated with HEK293T lysates expressing FLAG-tagged Smurf1 or Smurf2 at 4°C for 2 hr; blot; only the target purified

Chains of the proteins cited; added tags and fusions are not shown.
UniProt P70255: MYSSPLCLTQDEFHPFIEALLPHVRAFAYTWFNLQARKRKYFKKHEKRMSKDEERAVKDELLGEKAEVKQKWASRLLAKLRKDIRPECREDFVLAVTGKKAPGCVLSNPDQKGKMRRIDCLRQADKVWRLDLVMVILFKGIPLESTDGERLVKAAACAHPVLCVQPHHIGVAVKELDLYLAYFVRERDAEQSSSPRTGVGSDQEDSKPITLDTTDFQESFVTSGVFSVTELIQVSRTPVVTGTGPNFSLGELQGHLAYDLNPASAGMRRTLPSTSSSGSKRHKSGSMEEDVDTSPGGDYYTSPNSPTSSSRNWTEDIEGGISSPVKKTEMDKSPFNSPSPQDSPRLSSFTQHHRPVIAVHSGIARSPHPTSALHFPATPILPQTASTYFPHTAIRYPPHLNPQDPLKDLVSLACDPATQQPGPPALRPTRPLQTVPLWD
UniProt Q8BUN5: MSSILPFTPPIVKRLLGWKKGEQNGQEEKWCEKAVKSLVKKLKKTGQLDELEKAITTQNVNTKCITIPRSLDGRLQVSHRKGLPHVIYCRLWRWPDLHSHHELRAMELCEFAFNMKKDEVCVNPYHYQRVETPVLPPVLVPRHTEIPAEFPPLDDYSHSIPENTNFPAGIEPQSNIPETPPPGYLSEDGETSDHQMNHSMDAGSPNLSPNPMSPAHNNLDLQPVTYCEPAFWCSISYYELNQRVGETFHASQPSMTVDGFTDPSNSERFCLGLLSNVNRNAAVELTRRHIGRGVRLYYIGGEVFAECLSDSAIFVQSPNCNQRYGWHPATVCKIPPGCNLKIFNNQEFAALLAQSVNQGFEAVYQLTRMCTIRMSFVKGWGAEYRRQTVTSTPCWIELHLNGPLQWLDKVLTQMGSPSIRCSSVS
UniProt Q9CUN6: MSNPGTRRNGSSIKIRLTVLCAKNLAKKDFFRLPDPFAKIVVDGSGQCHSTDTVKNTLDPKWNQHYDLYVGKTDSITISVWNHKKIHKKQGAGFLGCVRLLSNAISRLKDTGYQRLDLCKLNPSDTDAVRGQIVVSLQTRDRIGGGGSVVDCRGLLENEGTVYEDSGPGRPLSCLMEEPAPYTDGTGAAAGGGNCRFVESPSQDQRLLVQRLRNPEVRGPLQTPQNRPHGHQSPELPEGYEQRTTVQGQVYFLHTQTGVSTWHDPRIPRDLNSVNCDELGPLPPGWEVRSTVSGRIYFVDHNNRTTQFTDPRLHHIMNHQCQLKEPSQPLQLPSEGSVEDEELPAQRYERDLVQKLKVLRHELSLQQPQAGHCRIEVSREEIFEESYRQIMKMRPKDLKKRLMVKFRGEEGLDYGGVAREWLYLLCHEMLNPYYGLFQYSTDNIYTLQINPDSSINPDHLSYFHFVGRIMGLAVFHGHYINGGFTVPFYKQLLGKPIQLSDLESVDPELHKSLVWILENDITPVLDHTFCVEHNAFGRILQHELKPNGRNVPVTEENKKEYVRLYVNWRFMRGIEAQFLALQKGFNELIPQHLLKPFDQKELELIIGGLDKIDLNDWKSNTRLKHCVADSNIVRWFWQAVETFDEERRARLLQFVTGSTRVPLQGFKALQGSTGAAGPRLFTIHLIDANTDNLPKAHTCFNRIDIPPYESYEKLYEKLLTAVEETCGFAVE
UniProt Q9HCE7: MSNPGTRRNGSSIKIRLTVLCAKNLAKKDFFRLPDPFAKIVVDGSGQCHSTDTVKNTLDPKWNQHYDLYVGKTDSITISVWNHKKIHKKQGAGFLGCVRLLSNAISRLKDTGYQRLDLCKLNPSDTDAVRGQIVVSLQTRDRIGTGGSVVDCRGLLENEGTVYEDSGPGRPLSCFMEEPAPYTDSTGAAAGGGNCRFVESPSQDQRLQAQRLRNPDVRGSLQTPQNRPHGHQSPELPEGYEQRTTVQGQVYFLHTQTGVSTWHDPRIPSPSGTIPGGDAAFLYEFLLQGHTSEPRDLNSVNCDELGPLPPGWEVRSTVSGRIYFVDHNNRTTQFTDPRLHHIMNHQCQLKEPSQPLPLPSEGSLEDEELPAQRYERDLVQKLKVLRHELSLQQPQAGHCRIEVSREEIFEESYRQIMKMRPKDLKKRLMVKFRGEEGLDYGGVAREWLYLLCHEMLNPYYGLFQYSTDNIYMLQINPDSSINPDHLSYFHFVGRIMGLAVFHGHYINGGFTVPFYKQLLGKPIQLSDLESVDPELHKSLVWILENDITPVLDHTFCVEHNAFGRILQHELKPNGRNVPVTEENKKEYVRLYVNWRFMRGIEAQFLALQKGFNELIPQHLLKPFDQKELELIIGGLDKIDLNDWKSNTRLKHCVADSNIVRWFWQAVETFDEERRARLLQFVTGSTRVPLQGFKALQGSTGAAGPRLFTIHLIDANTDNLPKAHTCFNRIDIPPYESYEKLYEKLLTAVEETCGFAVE
UniProt P84022: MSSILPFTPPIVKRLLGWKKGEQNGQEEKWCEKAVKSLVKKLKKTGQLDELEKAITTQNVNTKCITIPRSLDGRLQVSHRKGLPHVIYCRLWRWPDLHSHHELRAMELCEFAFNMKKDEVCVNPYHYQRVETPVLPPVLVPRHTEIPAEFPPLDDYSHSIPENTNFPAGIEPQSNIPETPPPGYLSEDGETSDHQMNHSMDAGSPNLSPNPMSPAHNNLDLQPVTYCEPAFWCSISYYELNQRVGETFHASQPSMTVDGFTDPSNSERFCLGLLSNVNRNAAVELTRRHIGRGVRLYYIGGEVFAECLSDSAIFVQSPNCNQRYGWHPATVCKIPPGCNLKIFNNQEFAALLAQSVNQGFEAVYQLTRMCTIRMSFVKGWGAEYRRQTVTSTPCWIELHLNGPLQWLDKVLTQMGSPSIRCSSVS
UniProt Q9HAU4: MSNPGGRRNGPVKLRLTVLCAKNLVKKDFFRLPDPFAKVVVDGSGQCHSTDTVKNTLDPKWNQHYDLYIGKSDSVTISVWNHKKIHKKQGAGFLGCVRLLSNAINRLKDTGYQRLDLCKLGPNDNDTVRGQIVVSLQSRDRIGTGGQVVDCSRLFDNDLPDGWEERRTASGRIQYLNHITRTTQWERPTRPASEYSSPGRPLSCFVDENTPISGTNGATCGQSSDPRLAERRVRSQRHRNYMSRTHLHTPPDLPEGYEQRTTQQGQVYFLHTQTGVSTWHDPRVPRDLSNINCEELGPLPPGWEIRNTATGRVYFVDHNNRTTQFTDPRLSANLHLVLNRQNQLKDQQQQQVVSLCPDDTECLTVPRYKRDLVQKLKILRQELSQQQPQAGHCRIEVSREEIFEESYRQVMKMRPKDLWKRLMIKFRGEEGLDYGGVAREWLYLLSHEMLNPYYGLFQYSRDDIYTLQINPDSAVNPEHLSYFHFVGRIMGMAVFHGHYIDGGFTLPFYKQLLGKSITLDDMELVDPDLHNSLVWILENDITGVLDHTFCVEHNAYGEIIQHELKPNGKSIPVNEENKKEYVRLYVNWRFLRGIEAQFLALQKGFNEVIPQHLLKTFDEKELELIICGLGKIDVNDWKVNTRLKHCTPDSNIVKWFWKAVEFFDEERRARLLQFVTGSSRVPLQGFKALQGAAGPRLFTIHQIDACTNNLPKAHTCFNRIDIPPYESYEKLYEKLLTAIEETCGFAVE

Endogenous phosphorylated Smad3 (p-Smad3) of MDPC-23 cells (from UniProt Q8BUN5 1-425)
binding [1]: binds

Endogenous Smurf1 of MDPC-23 cells (from UniProt Q9CUN6 1-731) (enzyme)
binding [2]: binds

FLAG-tagged Smurf1 (from UniProt Q9HCE7 1-757) (enzyme)
binding [3]: binds | binding [4]: binds

FLAG-tagged Smad3 (from UniProt P84022 1-425)
binding [3]: binds

FLAG-tagged Smurf2 (from UniProt Q9HAU4 1-748) (enzyme)
binding [3]: binds | binding [4]: binds
